Laboratory results from PubChem BioAssay AID1347423 (Functional Genomics Laboratory (NCATS/FGL), 2020).
Among all 52,000 sequences or so, about 210 (0.4%) were called active.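 How the source made its calls: active means gene whose silencing raises cell survival under the drug, median off-target-corrected z-score across its silencing RNAs 2 or more; inactive means the rest.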 This is one part of the list.

Assay: Resistance to Poly (ADP-Ribose) Polymerase inhibitor: Gene Identification via Genome-wide siRNA Screen
Conditions: mouse BRCA2 R2336H ES cells, olaparib, CellTiter-Glo viability; stronger effect = higher value
Outline: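 Genome-wide siRNA screen (3 siRNAs/gene, 20 nM) in mouse ES cells carrying hypomorphic BRCA2 R2336H; olaparib 500 nM added 48 h post-transfection, CellTiter-Glo viability 72 h later. Normalized to plate-median negative control; MAD z-scores, gene median, seed-adjusted.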

Sequence	z-score
GGCUUUGAAGAAGAGCUUUTT against Atp6v0a4	inactive: -1.22
GGCCAGAGUCUGGUUGAAUTT against Entpd2	inactive: -0.134
GGACAGAAAUGUUUUUUGGTT against Robo4	inactive: 1.74
GGCUCAUUCGGACUAUAUGTT against Igsf4a	inactive: 1.82
GGACUUCCUGACCAUCAUCTT against 1700008P20Rik	inactive: -2.22
CCGCCUUUCUGUGAGAUGCTT against Rbm11	inactive: 0.136
CGAAUACAUCAUGUCAAAATT against Chek2	inactive: 1.62
CGGACUCAUUCAGCAACCUTT against 4922503N01Rik	inactive: 0.283
GCUAACAAAGAGCCUGGCATT against Trim46	inactive: -1.24
GGUGGUUCGCACAGAAAGUTT against BC010801	inactive: -0.184
CCUUAGGCUGACAUAAUAATT against 1700014P03Rik	inactive: -0.105
GGCUUCUUCUACUUUCAAGTT against Slc27a5	inactive: -0.875
GCAUCUGUGAAAAGUGAACTT against Agtrap	inactive: -1.21
CAAUACAUUGAUAGCAAAUTT against V1rh7	inactive: 1.29
GCUAAUAAAGACGUAGCGUTT against Nup188	inactive: -0.552
GGCCUCGUACUCCAUAAGUTT against 1200011O22Rik	inactive: -0.0351
GCUCCGUGUUGUCCUAAUGTT against E230011A21Rik	inactive: 1.02
GGAGAGCUACGACUAUCUCTT against Vps29	inactive: 0.369
GGACAAUAAAAGGAAAGACTT against Brd7	inactive: -0.867
GGAAGCUGAAGAAGACCUGTT against Reg1	inactive: 0.99
GAUGGAUCUUUAUAAGCAGTT against Expi	inactive: 0.717
GGCAAACAUGAAGAGAAGCTT against Hspb8	inactive: -0.267
GGUUGUGACAAUGUGAUCCTT against Coro1a	inactive: -0.404
GGCAAUAACAUCCAUAUGUTT against Smyd4	inactive: 1.24
GGCGCAUAAUGGGAGAAGCTT against Alox5ap	inactive: -0.851
CCUGCGUUGACCAAUCAGATT against Tmem24	inactive: 0.0609

Sequence	z-score
GCUGAAGUCUCUUCAAUGCTT against Trappc6b	inactive: 0.428
GGAACAACAUGUUCAAGAUTT against 9530014D17Rik	inactive: 0.0648
GGGCCAAGGAAGAACUUCATT against Micl	inactive: 1.38
GACUUCAGACAAAUAGUGCTT against 2310069N01Rik	inactive: -0.966
GGGUGUGUUGGAUACCUAUTT against BC054059	inactive: 0.852
GGAAAAACUUGACUUACAATT against Mist1	inactive: 0.485
CGGAUGUGGGCAUUCGUUATT against Fbxl7	inactive: -0.0332
GGCUUAGUCAGUUCUCUCGTT against Sdf2	inactive: 1.18
CGGCCUCCAUGUUAAGAUATT against Csf2rb2	inactive: 0.645
GCUCACUGCUACAAAUACCTT against Prss2	inactive: 0.0149
GGAAACAUUUGUCUUUUGCTT against Eif2b5	inactive: -0.841
CCUCACCGUAGUGAUGUUGTT against Olfr257	inactive: -2.92
CCCAGGUAGUAUACAAGGUTT against 2010005A06Rik	inactive: 2.12
GGAACUAUUUUUUACCCAATT against Dclre1a	inactive: 1.78
GGGUACAAGUGCUGAAAAATT against Tcfcp2l2	inactive: -0.913
GGCAUUCUCAAGAAAAAGUTT against 1200013B22Rik	inactive: -1.25
GCCGUGCAACACUUCUACATT against Esrrb	inactive: 1.71
GCGAGUUUAAAAGCACACUTT against 2310079F23Rik	inactive: 1.26
GGAAGAGGACCAAAGUGCUTT against BC027342	inactive: 0.0991
GGGAAAUCAGUUUUACAAATT against Chl1	active: 2.76
GGUCUUACAUCUGGUUUCCTT against Rapgef5	inactive: 1.04
GGGUUCACGAAAGAGUAAATT against Clcn5	inactive: -1.45
GCUAAGUGCUCGAAUCCGATT against 1810031K17Rik	inactive: -0.121
CCACAGUCGCUUUCUUUUATT against A830093I24Rik	inactive: 0.39
GACCAGUGACAAGACCAUCTT against Cmya4	inactive: 1.74
GGUUAUUCAUAUGGAACUGTT against Mapk9	inactive: 0.32

Sequence	z-score
GGGCUGCUUUAAUAAAGAUTT against Pycr2	inactive: -0.367
CCCACGGAGGCAAUAAAUATT against Crygn	inactive: 0.243
GGCCUUACAACAAAAUCUGTT against Chd9	inactive: 0.447
GGUACUGAGCUUGAUUGUATT against 4732482E20Rik	inactive: -1.42
GGUGUCCACGGUGGUUUGATT against Pfn1	inactive: -1.41
CCGUGAAAAUCAGUAAUUATT against Cacybp	inactive: -0.903
UUGAAAUGCCUCGUUCUUUTT against Wfdc13l1	inactive: -0.48
CGAAGUUUUGUUGAAAAGCTT against Rhobtb3	inactive: -0.672
GGUCCCUGAGGAUUUCAUCTT against Tusc4	inactive: -0.991
GGUGAAUAUACUGUAAUGATT against Gabra2	inactive: -0.484
GGAGAACCUGAGCUAUGAUTT against Hsp105	inactive: -1.42
GCACAUCGGCCUUAAGUCATT against Supt4h	inactive: -0.695
GCCGUUAUUGCAUUUGGACTT against 6330415F13Rik	inactive: -0.0926
CCAAUCUCUACCGUCUCCUTT against Camp	inactive: -0.0705
CCUACUUAGUCCAGUUUAATT against Olfr735	inactive: -0.187
CCUCUUCAGCUUACAGUGGTT against Fjx1	inactive: -0.588
GGGAAAAGAGAGUGGUGUATT against Rab27a	inactive: -0.7
GUGGUCUUUAGUGGUGCUCTT against Mata2	inactive: 4.01
GCUUAUAGAUCAGAUAGGATT against Cd244	inactive: 0.459
GGAAUCAGCUCUUUGAGCGTT against Capn5	inactive: -1.05
GGCCUUAAUUUAGUUGGUATT against Fbxo2	inactive: 0.189
GGUUAUUCAUUCAAAAUGGTT against 2810421I24Rik	inactive: 0.533
GGUUCUACAGAUGUUUUCUTT against Tnfrsf22	inactive: -0.928
GGCAGCGCAAUGGAUUAGUTT against Chrng	active: 1.99
GGCUGUUACAACAAAGGAATT against 2700022J23Rik	inactive: -0.726
GCAUAGUGACCAUGGAUAATT against Olfr807	inactive: -1.12

Sequence	z-score
GGCAGUCAACAAAGAAGACTT against Metapl1	inactive: -1.74
GCUGUGUACUCUGCCUUGUTT against Olfr338	inactive: -0.374
GGAGACCUUCAGCUUGGAATT against Zfp260	inactive: -2.48
GCUCCUAAGUAAAAUGGUATT against 2010109K11Rik	inactive: 0.301
GCGAUUCUUGAUAAAGAGGTT against 4933413G11Rik	inactive: 0.013
GGCUCUGUGCUUAAGAUGATT against D130038B21Rik	inactive: 0.743
GGGAUUUCAAAUAAUUUGCTT against Nudt4	inactive: 1.24
GGCCUUGUGUUUAGAAAACTT against Piwil2	inactive: 0.131
GGAAACACCGGAAAUAAUCTT against Akap12	inactive: 1.72
GGAGAACUUCAGUGAGUCCTT against Ambp	inactive: 0.895
GGAGAGACUCAGGAGUUUUTT against Rohn	inactive: -0.479
CGGAUCUUAUCAGAACAUGTT against Zfml	inactive: -1.35
GGCCAACCAAGUCUUCUGATT against 2310031L18Rik	inactive: 1.43
GGUGUGGUCUAUGACACGUTT against Hdac5	inactive: -0.538
GGAGUUGACGAAGAUAUGATT against 1110014D18Rik	inactive: 2.22
GCAUCCUAUAAUAUGCAUGTT against Pcdh21	inactive: 0.192
CCAGUGUUCCCUACUACGUTT against 1810009M01Rik	inactive: 0.706
GGGAGUUCCAAUCAUUCUUTT against 2200002J24Rik	inactive: -0.178
CCUGGUCACUCCAAACCCATT against BC055757	inactive: 0.651
GGCAGUGGAUGUACAAAAATT against Sh3bgrl2	inactive: 0.0662
GGCUGACGAAUGACAGUUGTT against 3110023G01Rik	inactive: -1.63
GGAGUCAGGGCUGAUACAUTT against Lpin3	inactive: -1.85
GGAACCUGAUUGACUUGGATT against 9330187M14Rik	inactive: -0.444
GGAAGAGAAGUAUUGAGGATT against Pdgfa	inactive: -0.725
CCUCAUCGUAAGAGACAUATT against Arhgef2	inactive: 0.0141

Another view of some results above.
Sequence,z-score
GGCUUCUUCUACUUUCAAGTT against Slc27a5,inactive: -0.875
GGCAAACAUGAAGAGAAGCTT against Hspb8,inactive: -0.267
GGAAGAGGACCAAAGUGCUTT against BC027342,inactive: 0.0991
GACCAGUGACAAGACCAUCTT against Cmya4,inactive: 1.74
CCUCAUCGUAAGAGACAUATT against Arhgef2,inactive: 0.0141
